Laboratory results from article doi:10.1101/2022.11.15.516651.
These are yes or no findings as the source states them, for the method shown. Binding seen in cells or lysates may run through a third protein. A yes stands for co-enrichment or nearness to the bait. Other partners may have been found. Each block holds one binder with its values, some of them ahead of it.

Protein sequences, listed by entry. Tags and fused reporters are not part of them. Residues count along the entry.
UniProt P08195, residues 66-630: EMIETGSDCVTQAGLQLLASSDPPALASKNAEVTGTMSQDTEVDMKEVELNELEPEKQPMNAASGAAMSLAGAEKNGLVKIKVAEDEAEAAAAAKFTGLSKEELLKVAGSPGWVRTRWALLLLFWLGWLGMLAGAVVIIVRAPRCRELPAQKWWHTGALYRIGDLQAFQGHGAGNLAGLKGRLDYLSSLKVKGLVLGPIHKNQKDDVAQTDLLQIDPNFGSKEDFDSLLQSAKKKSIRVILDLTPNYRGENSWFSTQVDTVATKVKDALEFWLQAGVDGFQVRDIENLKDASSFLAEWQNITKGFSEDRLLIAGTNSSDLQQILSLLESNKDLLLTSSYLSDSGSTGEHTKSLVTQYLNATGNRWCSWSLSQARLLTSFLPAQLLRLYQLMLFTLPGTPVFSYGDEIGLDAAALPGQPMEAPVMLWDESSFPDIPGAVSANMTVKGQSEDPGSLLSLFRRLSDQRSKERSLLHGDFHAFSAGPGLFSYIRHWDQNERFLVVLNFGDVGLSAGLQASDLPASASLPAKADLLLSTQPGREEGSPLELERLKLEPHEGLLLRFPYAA

Molecular target: FLAG-SLC3A2 WTseq (human) (UniProt P08195)
Test: affinity purification with mass spectrometry

B2: DDOST (protein, UniProt P39656 43-456)
chain: SGPRTLVLLDNLNVRETHSLFFRSLKDRGFELTFKTADDPSLSLIKYGEFLYDNLIIFSPSVEDFGGNINVETISAFIDGGGSVLVAASSDIGDPLRELGSECGIEFDEEKTAVIDHHNYDISDLGQHTLIVADTENLLKAPTIVGKSSLNPILFRGVGMVADPDNPLVLDILTGSSTSYSFFPDKPITQYPHAVGKNTLLIAGLQARNNARVIFSGSLDFFSDSFFNSAVQKAAPGSQRYSQTGNYELAVALSRWVFKEEGVLRVGPVSHHRVGETAPPNAYTVTDLVEYSIVIQQLSNGKWVPFDGDDIQLEFVRIDPFVRTFLKKKGGKYSVQFKLPDVYGVFQFKVDYNRLGYTHLYSSTQVSVRPLQHTQYERFIPSAYPYYASAFSMMLGLFIFSIVFLHMKEKEKSD
binding: binds

B3: RPN1 (protein, UniProt P04843 24-607)
chain: ASSEAPPLINEDVKRTVDLSSHLAKVTAEVVLAHLGGGSTSRATSFLLALEPELEARLAHLGVQVKGEDEEENNLEVRETKIKGKSGRFFTVKLPVALDPGAKISVIVETVYTHVLHPYPTQITQSEKQFVVFEGNHYFYSPYPTKTQTMRVKLASRNVESYTKLGNPTRSEDLLDYGPFRDVPAYSQDTFKVHYENNSPFLTITSMTRVIEVSHWGNIAVEENVDLKHTGAVLKGPFSRYDYQRQPDSGISSIRSFKTILPAAAQDVYYRDEIGNVSTSHLLILDDSVEMEIRPRFPLFGGWKTHYIVGYNLPSYEYLYNLGDQYALKMRFVDHVFDEQVIDSLTVKIILPEGAKNIEIDSPYEISRAPDELHYTYLDTFGRPVIVAYKKNLVEQHIQDIVVHYTFNKVLMLQEPLLVVAAFYILFFTVIIYVRLDFSITKDPAAEARMKVACITEQVLTLVNKRIGLYRHFDETVNRYKQSRDISTLNSGKKSLETEHKALTSEIALLQSRLKTEGSDLCDRVSEMQKLDAQVKELVLKSAVEAERLVAGKLKKDTYIENEKLISGKRQELVTKIDHILDAL
binding: binds

B4: SLC25A11 (protein, UniProt Q02978 1-314)
chain: MAATASAGAGGIDGKPRTSPKSVKFLFGGLAGMGATVFVQPLDLVKNRMQLSGEGAKTREYKTSFHALTSILKAEGLRGIYTGLSAGLLRQATYTTTRLGIYTVLFERLTGADGTPPGFLLKAVIGMTAGATGAFVGTPAEVALIRMTADGRLPADQRRGYKNVFNALIRITREEGVLTLWRGCIPTMARAVVVNAAQLASYSQSKQFLLDSGYFSDNILCHFCASMISGLVTTAASMPVDIAKTRIQNMRMIDGKPEYKNGLDVLFKVVRYEGFFSLWKGFTPYYARLGPHTVLTFIFLEQMNKAYKRLFLSG
binding: binds

B6: ADP/ATP translocator SLC25A6 (protein, UniProt P12236 1-298)
chain: MTEQAISFAKDFLAGGIAAAISKTAVAPIERVKLLLQVQHASKQIAADKQYKGIVDCIVRIPKEQGVLSFWRGNLANVIRYFPTQALNFAFKDKYKQIFLGGVDKHTQFWRYFAGNLASGGAAGATSLCFVYPLDFARTRLAADVGKSGTEREFRGLGDCLVKITKSDGIRGLYQGFSVSVQGIIIYRAAYFGVYDTAKGMLPDPKNTHIVVSWMIAQTVTAVAGVVSYPFDTVRRRMMMQSGRKGADIMYTGTVDCWRKIFRDEGGKAFFKGAWSNVLRGMGGAFVLVLYDELKKVI
binding: binds

B8: SLC25A13 (protein, UniProt Q9UJS0 1-675)
chain: MAAAKVALTKRADPAELRTIFLKYASIEKNGEFFMSPNDFVTRYLNIFGESQPNPKTVELLSGVVDQTKDGLISFQEFVAFESVLCAPDALFMVAFQLFDKAGKGEVTFEDVKQVFGQTTIHQHIPFNWDSEFVQLHFGKERKRHLTYAEFTQFLLEIQLEHAKQAFVQRDNARTGRVTAIDFRDIMVTIRPHVLTPFVEECLVAAAGGTTSHQVSFSYFNGFNSLLNNMELIRKIYSTLAGTRKDVEVTKEEFVLAAQKFGQVTPMEVDILFQLADLYEPRGRMTLADIERIAPLEEGTLPFNLAEAQRQKASGDSARPVLLQVAESAYRFGLGSVAGAVGATAVYPIDLVKTRMQNQRSTGSFVGELMYKNSFDCFKKVLRYEGFFGLYRGLLPQLLGVAPEKAIKLTVNDFVRDKFMHKDGSVPLAAEILAGGCAGGSQVIFTNPLEIVKIRLQVAGEITTGPRVSALSVVRDLGFFGIYKGAKACFLRDIPFSAIYFPCYAHVKASFANEDGQVSPGSLLLAGAIAGMPAASLVTPADVIKTRLQVAARAGQTTYSGVIDCFRKILREEGPKALWKGAGARVFRSSPQFGVTLLTYELLQRWFYIDFGGVKPMGSEPVPKSRINLPAPNPDHVGGYKLAVATFAGIENKFGLYLPLFKPSVSTSKAIGGGP
binding: binds

Other lines, results leading:

binding: binds
B1: SLC25A22 (protein, UniProt Q9H936 1-323)
chain: MADKQISLPAKLINGGIAGLIGVTCVFPIDLAKTRLQNQQNGQRVYTSMSDCLIKTVRSEGYFGMYRGAAVNLTLVTPEKAIKLAANDFFRHQLSKDGQKLTLLKEMLAGCGAGTCQVIVTTPMEMLKIQLQDAGRIAAQRKILAAQGQLSAQGGAQPSVEAPAAPRPTATQLTRDLLRSRGIAGLYKGLGATLLRDVPFSVVYFPLFANLNQLGRPASEEKSPFYVSFLAGCVAGSAAAVAVNPCDVVKTRLQSLQRGVNEDTYSGILDCARKILRHEGPSAFLKGAYCRALVIAPLFGIAQVVYFLGIAESLLGLLQDPQA

binding: binds
B5: STT3A (protein, UniProt P46977 1-705)
chain: MTKFGFLRLSYEKQDTLLKLLILSMAAVLSFSTRLFAVLRFESVIHEFDPYFNYRTTRFLAEEGFYKFHNWFDDRAWYPLGRIIGGTIYPGLMITSAAIYHVLHFFHITIDIRNVCVFLAPLFSSFTTIVTYHLTKELKDAGAGLLAAAMIAVVPGYISRSVAGSYDNEGIAIFCMLLTYYMWIKAVKTGSICWAAKCALAYFYMVSSWGGYVFLINLIPLHVLVLMLTGRFSHRIYVAYCTVYCLGTILSMQISFVGFQPVLSSEHMAAFGVFGLCQIHAFVDYLRSKLNPQQFEVLFRSVISLVGFVLLTVGALLMLTGKISPWTGRFYSLLDPSYAKNNIPIIASVSEHQPTTWSSYYFDLQLLVFMFPVGLYYCFSNLSDARIFIIMYGVTSMYFSAVMVRLMLVLAPVMCILSGIGVSQVLSTYMKNLDISRPDKKSKKQQDSTYPIKNEVASGMILVMAFFLITYTFHSTWVTSEAYSSPSIVLSARGGDGSRIIFDDFREAYYWLRHNTPEDAKVMSWWDYGYQITAMANRTILVDNNTWNNTHISRVGQAMASTEEKAYEIMRELDVSYVLVIFGGLTGYSSDDINKFLWMVRIGGSTDTGKHIKENDYYTPTGEFRVDREGSPVLLNCLMYKMCYYRFGQVYTEAKRPPGFDRVRNAEIGNKDFELDVLEEAYTTEHWLVRIYKVKDLDNRGLSRT

binding: binds
B7: SLC25A19 (protein, UniProt Q9HC21 1-320)
chain: MVGYDPKPDGRNNTKFQVAVAGSVSGLVTRALISPFDVIKIRFQLQHERLSRSDPSAKYHGILQASRQILQEEGPTAFWKGHVPAQILSIGYGAVQFLSFEMLTELVHRGSVYDAREFSVHFVCGGLAACMATLTVHPVDVLRTRFAAQGEPKVYNTLRHAVGTMYRSEGPQVFYKGLAPTLIAIFPYAGLQFSCYSSLKHLYKWAIPAEGKKNENLQNLLCGSGAGVISKTLTYPLDLFKKRLQVGGFEHARAAFGQVRRYKGLMDCAKQVLQKEGALGFFKGLSPSLLKAALSTGFMFFSYEFFCNVFHCMNRTASQR
